PubChem BioAssay AID504808, Drosophila RNAi Screening Center, 2011

- Aim: 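Fly genes required to hold E2F transcription in check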 (primary screen)
- System: Drosophila S2 cells
- Knock-down reagent: long dsRNA against Drosophila genes
- Measured: 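Dual luciferase plate measurements; E2F-specific signal taken as firefly over Renilla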
- Reading the numbers: E2F firefly: higher = more E2F reporter activity; Renilla normaliser: higher = more normaliser reporter signal
- Rule for the call: 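Called active if the normalised E2F reporter went up by over 50%; the cutoff is arbitrary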
The screen tested about 21,000 reagents; shown is a random part of those that have a named target and a result. Over the whole deposit, 18 (0.084%) are marked active. 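Raw counts without plate normalisation, one of two replicates; the ratio scores behind the calls were not deposited.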 A plus sign joins genes that one reagent is predicted to hit. Not stated in the record: the amount of reagent, the time to read-out.

With knock-down of SLIRP1 + anox [DRSC20542] the results were E2F firefly, rep 1 = 1.62e5; Renilla normaliser, rep 1 = 5411; inactive.
For CG9801 [DRSC16568], the entry reads E2F firefly, rep 1 = 75280; Renilla normaliser, rep 1 = 3318; inactive.
Silencing of wry [DRSC00352] gave: E2F firefly, rep 1 = 1.65e5; Renilla normaliser, rep 1 = 5450; inactive.
wry [DRSC00456] showed E2F firefly, rep 1 = 1.65e5; Renilla normaliser, rep 1 = 5988; inactive.
Nmt [DRSC11236] showed E2F firefly, rep 1 = 83384; Renilla normaliser, rep 1 = 3561; inactive.
For Ag5r2 [DRSC19328], the values are E2F firefly, rep 1 = 1.46e5; Renilla normaliser, rep 1 = 5710; inactive.
With knock-down of CG31639 [DRSC00910], the screen gave E2F firefly, rep 1 = 1.29e5; Renilla normaliser, rep 1 = 6129; inactive.
Against Ced-12 [DRSC02840], the entry reads E2F firefly, rep 1 = 1.15e5; Renilla normaliser, rep 1 = 4548; inactive.
With knock-down of ck [DRSC03509], the record shows E2F firefly, rep 1 = 74396; Renilla normaliser, rep 1 = 3421; inactive.

Records above whose target name starts with W or w:
wry [DRSC00352] — E2F firefly, rep 1: 1.65e5; Renilla normaliser, rep 1: 5450; outcome: inactive
wry [DRSC00456] — E2F firefly, rep 1: 1.65e5; Renilla normaliser, rep 1: 5988; outcome: inactive

Additional records:
Silencing of Lint-1 [DRSC19822] came out at: E2F firefly, rep 1 = 7618; Renilla normaliser, rep 1 = 808; inactive.
After knock-down of modSP [DRSC16726], the record shows E2F firefly, rep 1 = 1.22e5; Renilla normaliser, rep 1 = 6911; inactive.
modSP [DRSC16857] scored E2F firefly, rep 1 = 1.16e5; Renilla normaliser, rep 1 = 5651; inactive.
With knock-down of Mst77F [DRSC11871], the screen gave E2F firefly, rep 1 = 1.31e5; Renilla normaliser, rep 1 = 7362; inactive.
Silencing of CG15167 [DRSC02468] gave: E2F firefly, rep 1 = 1.06e5; Renilla normaliser, rep 1 = 4684; inactive.
Depletion of CG13954 [DRSC06442] resulted in: E2F firefly, rep 1 = 1.40e5; Renilla normaliser, rep 1 = 4590; inactive.
Knock-down of Ypel [DRSC17996] came out at: E2F firefly, rep 1 = 8005; Renilla normaliser, rep 1 = 648; inactive.
CG3436 [DRSC00605] gave E2F firefly, rep 1 = 69705; Renilla normaliser, rep 1 = 3391; inactive.
PGRP-LD + Cralbp + Pmi [DRSC09743] gave E2F firefly, rep 1 = 95261; Renilla normaliser, rep 1 = 4043; inactive.
With knock-down of Hel25E [DRSC03342] the results were E2F firefly, rep 1 = 56112; Renilla normaliser, rep 1 = 213; inactive.
CG12679 [DRSC20493] scored E2F firefly, rep 1 = 1.45e5; Renilla normaliser, rep 1 = 6779; inactive.
With knock-down of Ebp [DRSC04048], the screen gave E2F firefly, rep 1 = 92100; Renilla normaliser, rep 1 = 3045; inactive.
CG11635 + spaw [DRSC06075] gave E2F firefly, rep 1 = 1.46e5; Renilla normaliser, rep 1 = 5564; inactive.
After knock-down of pic [DRSC16639], the record shows E2F firefly, rep 1 = 72968; Renilla normaliser, rep 1 = 4269; inactive.
Against NPFR [DRSC12173] the deposit lists E2F firefly, rep 1 = 1.42e5; Renilla normaliser, rep 1 = 6146; inactive.
Silencing of CR30374 [DRSC05080] gave: E2F firefly, rep 1 = 1.38e5; Renilla normaliser, rep 1 = 5514; inactive.
CG7083 [DRSC11136] scored E2F firefly, rep 1 = 1.04e5; Renilla normaliser, rep 1 = 3610; inactive.
For NKAIN [DRSC04531], the entry reads E2F firefly, rep 1 = 78012; Renilla normaliser, rep 1 = 3418; inactive.
Depletion of Frq2 [DRSC20245] resulted in: E2F firefly, rep 1 = 1.57e5; Renilla normaliser, rep 1 = 6310; inactive.
